PubChem BioAssay AID1159584, Peter MacCallum Cancer Centre – 2016
Test: 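Knock-downs that harm CDH1-null cells more than parental MCF10A cells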 (primary screen). Cell system: human MCF10A breast epithelial cells, parental and CDH1-null. Reagents: siRNA against human genes. Measured: 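ATP luminescence (CellTiter-Glo) viability per line relative to mean mock wells over all plates, and the ratio of CDH1-null to parental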. Direction: CDH1-null / parental viability ratio: higher = CDH1-null cells survive relatively better than parental; CDH1-null viability vs mock: higher = more viable CDH1-null cells; parental viability vs mock: higher = more viable parental cells.
Shown is one part, drawn at random, of about 18,000 reagents tested. Not stated in the record: the amount of reagent, the time to read-out.

| gene | CDH1-null / parental viability ratio | CDH1-null viability vs mock (fraction of mock) | parental viability vs mock (fraction of mock) |
| --- | --- | --- | --- |
| IMP4 | 1.07 | 0.48 | 0.45 |
| ST8SIA1 | 1.28 | 0.82 | 0.64 |
| PXDN | 0.94 | 0.68 | 0.72 |
| COPE | 0.96 | 0.86 | 0.9 |
| VMA21 | 1.49 | 1.04 | 0.7 |
| TMEM176B | 0.99 | 0.89 | 0.9 |
| PGM1 | 1.01 | 0.96 | 0.95 |
| GALNT1 | 1.07 | 0.9 | 0.84 |
| SCGB2A1 | 0.95 | 0.92 | 0.97 |
| POTED | 0.85 | 0.71 | 0.84 |
| SYP | 1.16 | 0.74 | 0.64 |
| TEKT4 | 0.72 | 0.52 | 0.72 |
| ATF1 | 1 | 0.84 | 0.84 |
| MDK | 0.94 | 0.72 | 0.77 |
| PLCXD3 | 0.92 | 0.74 | 0.8 |
| H4C8 | 1.04 | 0.73 | 0.7 |
| SLITRK3 | 1.31 | 0.63 | 0.48 |
| ANKRD13B | 0.96 | 0.9 | 0.94 |
| AGAP7P | 0.64 | 0.18 | 0.28 |
| CFAP141 | 0.94 | 0.64 | 0.68 |
| ANKRD7 | 1.89 | 1.21 | 0.64 |
| IER5 | 1.02 | 0.84 | 0.82 |
| HCN3 | 1.26 | 0.98 | 0.78 |
| MEA1 | 0.84 | 0.82 | 0.98 |
| CNKSR1 | 1.24 | 0.46 | 0.37 |
| TPM2 | 1.22 | 1.07 | 0.88 |
| ANKRD22 | 0.88 | 0.78 | 0.89 |
| PGLYRP3 | 1.03 | 0.7 | 0.68 |

Targets above whose target name begins with P or p:
| gene | CDH1-null / parental viability ratio | CDH1-null viability vs mock (fraction of mock) | parental viability vs mock (fraction of mock) |
| --- | --- | --- | --- |
| PXDN | 0.94 | 0.68 | 0.72 |
| PGM1 | 1.01 | 0.96 | 0.95 |
| POTED | 0.85 | 0.71 | 0.84 |
| PLCXD3 | 0.92 | 0.74 | 0.8 |
| PGLYRP3 | 1.03 | 0.7 | 0.68 |
